Experimental data: publication PMC2568875
Results are given in words; binding and its absence hold for the method and conditions named. Binding seen in cells or lysates may run through a third protein. Some binding calls cover weakened binding; strength is not graded here.

Sequences of proteins named here, by UniProt entry; tags and fusion partners are left off. Residues count along the entry.
UniProt Q00960, residues 27-1482: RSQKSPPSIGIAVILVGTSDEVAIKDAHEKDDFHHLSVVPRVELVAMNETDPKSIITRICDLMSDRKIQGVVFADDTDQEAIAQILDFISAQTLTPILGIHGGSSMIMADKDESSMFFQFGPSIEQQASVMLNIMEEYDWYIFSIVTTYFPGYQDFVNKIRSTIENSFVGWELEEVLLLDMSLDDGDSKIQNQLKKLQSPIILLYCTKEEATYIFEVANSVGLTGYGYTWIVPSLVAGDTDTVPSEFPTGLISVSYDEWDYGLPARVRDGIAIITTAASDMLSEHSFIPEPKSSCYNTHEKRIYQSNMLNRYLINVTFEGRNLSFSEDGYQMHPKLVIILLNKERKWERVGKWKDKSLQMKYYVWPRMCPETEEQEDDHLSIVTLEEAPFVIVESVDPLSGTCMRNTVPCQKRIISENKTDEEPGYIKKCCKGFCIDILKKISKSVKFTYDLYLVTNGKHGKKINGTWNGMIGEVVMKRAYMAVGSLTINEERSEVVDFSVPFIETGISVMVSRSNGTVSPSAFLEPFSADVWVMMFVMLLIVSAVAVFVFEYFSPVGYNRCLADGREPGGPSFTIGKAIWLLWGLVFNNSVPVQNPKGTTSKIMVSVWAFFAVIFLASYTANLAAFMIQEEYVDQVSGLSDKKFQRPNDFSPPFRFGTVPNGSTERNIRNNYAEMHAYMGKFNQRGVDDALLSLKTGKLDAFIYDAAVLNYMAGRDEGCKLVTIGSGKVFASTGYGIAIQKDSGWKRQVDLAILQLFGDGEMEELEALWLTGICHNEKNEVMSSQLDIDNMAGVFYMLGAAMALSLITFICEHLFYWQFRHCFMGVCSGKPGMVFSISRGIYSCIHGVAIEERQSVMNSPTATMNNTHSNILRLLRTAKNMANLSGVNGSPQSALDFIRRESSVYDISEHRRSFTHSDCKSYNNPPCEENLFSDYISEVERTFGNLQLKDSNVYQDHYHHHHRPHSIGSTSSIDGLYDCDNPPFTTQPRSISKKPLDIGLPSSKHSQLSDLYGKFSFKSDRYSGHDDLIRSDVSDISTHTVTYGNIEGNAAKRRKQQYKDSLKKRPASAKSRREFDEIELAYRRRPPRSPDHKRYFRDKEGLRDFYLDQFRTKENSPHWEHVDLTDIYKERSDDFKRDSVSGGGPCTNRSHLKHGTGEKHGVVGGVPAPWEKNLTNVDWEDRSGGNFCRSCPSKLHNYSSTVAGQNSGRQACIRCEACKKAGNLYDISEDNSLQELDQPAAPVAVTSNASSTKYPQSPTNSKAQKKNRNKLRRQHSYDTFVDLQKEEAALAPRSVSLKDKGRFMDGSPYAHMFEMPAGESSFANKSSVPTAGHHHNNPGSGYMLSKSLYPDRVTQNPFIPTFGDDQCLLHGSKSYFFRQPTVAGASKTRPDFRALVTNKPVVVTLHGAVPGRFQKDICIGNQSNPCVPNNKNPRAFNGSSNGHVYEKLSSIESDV
UniProt P09759, residues 18-984: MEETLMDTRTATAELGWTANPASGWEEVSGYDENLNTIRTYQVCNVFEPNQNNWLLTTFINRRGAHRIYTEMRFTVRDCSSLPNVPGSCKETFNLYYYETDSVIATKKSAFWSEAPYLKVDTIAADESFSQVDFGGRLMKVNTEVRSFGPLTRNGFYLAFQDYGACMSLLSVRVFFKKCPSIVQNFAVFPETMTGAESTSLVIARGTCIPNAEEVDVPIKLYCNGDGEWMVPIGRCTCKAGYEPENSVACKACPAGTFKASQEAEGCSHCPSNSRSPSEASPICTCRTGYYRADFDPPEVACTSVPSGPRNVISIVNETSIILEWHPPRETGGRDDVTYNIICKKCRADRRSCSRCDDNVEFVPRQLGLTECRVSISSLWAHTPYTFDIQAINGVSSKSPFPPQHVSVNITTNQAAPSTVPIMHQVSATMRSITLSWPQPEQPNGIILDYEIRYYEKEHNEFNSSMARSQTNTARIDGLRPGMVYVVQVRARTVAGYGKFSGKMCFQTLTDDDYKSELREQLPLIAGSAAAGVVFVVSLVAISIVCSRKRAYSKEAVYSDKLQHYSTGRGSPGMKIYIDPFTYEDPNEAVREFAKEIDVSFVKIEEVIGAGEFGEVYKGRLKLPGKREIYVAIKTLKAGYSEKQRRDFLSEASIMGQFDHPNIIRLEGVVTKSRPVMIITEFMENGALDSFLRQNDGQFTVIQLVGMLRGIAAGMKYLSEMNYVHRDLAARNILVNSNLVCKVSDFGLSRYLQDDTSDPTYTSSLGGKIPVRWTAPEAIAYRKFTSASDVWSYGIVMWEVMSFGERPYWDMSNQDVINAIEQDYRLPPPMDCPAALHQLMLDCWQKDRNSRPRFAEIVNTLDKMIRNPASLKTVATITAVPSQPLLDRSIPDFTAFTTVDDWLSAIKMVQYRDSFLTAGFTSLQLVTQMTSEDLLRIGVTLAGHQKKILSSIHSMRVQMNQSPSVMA

Biological target: NR2B subunit of the NMDA receptor (rat (endogenous in spinal cord dorsal horn)) (UniProt Q00960)
Experiment: co-IP; NR2B immunoprecipitated (5 ug rabbit anti-NR2B, overnight at 4 °C, protein-A sepharose) from 500 ug lysate of rat lumbar dorsal horn in 1% NP-40, 20 mM Tris pH 8, 137 mM NaCl; blots for phospho-Src (rats given intrathecal saline, ephrinB2-Fc, or PP2 then ephrinB2-Fc) or EphB1 (naive rats)

EphB1 receptor (from UniProt P09759 18-984)
binding: binds
